PubChem BioAssay AID1259308 | NCATS | 2017
The deposit covers about 59,000 reagents; this is a part drawn at random. Over the whole deposit, about 1,510 (2.6%) were called active. 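Calls use total luciferase alone and ignore viability, so some active siRNAs may act by altering cell number.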 The numbers tell different reagents against one gene apart. Reagent sequences are not shown.

Assay: 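Knock-downs that increase output of a recombinant reporter protein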 (primary screen)
Cell system: human HEK293 embryonic kidney cells stably expressing firefly luciferase (HEK-CMV-Luc2-Hygro)
Knock-down reagent: single siRNA against human genes, 0.8 pmol siRNA per well
Time to read-out: 72 h
Read-out: 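Luciferase light (ONE-Glo) measured on one replicate plate set and viability (CellTiter-Glo) on the other, scaled to a negative control siRNA, with robust z-scores and luciferase per cell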
Scale: total luciferase, z-score and total luciferase, % of control: higher = more reporter protein produced; luciferase per cell, z-score: higher = more reporter output per viable cell; viable cells, % of control: higher = more viable cells
Call rule: 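An siRNA counts as active if its total luciferase robust z-score exceeds 3; genes with two or more such siRNAs out of three were retested with fresh siRNAs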
Calls: active = raised luciferase; inactive = no rise

target gene	reagent	total luciferase, z-score	total luciferase, % of control	luciferase per cell, z-score	viable cells, % of control	Call
ADIG	1	0.089	83.7	0.312	86.1	inactive
ADIG	2	-1.05	61	-0.401	75.7	inactive
ADIG	3	-0.537	71.2	-0.292	85.9	inactive
PARD6B	1	0.681	95.4	0.912	83.9	inactive
PARD6B	2	0.325	88.4	-0.104	101	inactive
PARD6B	3	-2.11	40	-1.78	71.4	inactive
DCN	1	-0.537	71.2	-1.43	116	inactive
DCN	2	2	122	0.717	112	inactive
DCN	3	-2.91	23.9	-2.58	52.7	inactive
TRAP1	1	1.65	115	0.359	117	inactive
TRAP1	2	0.58	93.4	0.538	90.6	inactive
TRAP1	3	-0.797	66	-0.722	89.2	inactive
NSMAF	1	0.0453	82.8	-0.381	102	inactive
NSMAF	2	0.105	84	0.845	75.1	inactive
NSMAF	3	-0.725	67.5	-0.915	95.9	inactive
OCM2	1	1.06	103	1.61	75.3	inactive
OCM2	2	-0.82	65.6	-1.13	98.6	inactive
OCM2	3	0.0113	82.1	-0.141	95.2	inactive
ZNHIT3	1	-0.179	78.3	0.404	78.7	inactive
ZNHIT3	2	-1.3	56.1	-0.789	77.1	inactive
ZNHIT3	3	-1.31	55.8	-1.46	91.4	inactive
LYPLA1	1	-0.394	74	0.142	79.7	inactive
LYPLA1	2	-1.17	58.7	-0.945	84.1	inactive
LYPLA1	3	0.368	89.2	-0.0425	101	inactive
ADGRA3	1	1.28	107	1.29	85.4	inactive
ADGRA3	2	-0.461	72.7	-0.425	90.9	inactive
ADGRA3	3	-0.341	75.1	-0.846	105	inactive
C10orf71	1	-0.401	73.9	-0.169	86.3	inactive
C10orf71	2	-0.945	63.1	-0.568	81.9	inactive
C10orf71	3	0.449	90.8	-0.321	110	inactive
NDUFAF2	1	-0.353	74.9	0.968	64.8	inactive
NDUFAF2	2	-0.938	63.2	-0.902	89.6	inactive
NDUFAF2	3	2.37	129	1.59	94.8	inactive
TEAD2	1	0.184	85.5	0.229	90	inactive
TEAD2	2	-0.484	72.3	-0.664	96.2	inactive
TEAD2	3	-0.206	77.8	-0.243	92.7	inactive
NUP93	1	-2	42.1	-1.96	78.7	inactive
NUP93	2	-0.807	65.8	-0.231	78.2	inactive
NUP93	3	-1.4	54	-0.332	65.9	inactive
